No constants are given. Whether binding was seen depends on the method and setting. Binding seen in cells or lysates may run through a third protein. A yes stands for co-enrichment or nearness to the bait. Other partners may have been found. Where a sequence is shown, tags or fusion partners need not be part of it.

The target in this assay is T1, FLAG-tagged mouse RIPK1 (doxycycline-inducible) (mouse) (UniProt Q60855).
T1 sequence: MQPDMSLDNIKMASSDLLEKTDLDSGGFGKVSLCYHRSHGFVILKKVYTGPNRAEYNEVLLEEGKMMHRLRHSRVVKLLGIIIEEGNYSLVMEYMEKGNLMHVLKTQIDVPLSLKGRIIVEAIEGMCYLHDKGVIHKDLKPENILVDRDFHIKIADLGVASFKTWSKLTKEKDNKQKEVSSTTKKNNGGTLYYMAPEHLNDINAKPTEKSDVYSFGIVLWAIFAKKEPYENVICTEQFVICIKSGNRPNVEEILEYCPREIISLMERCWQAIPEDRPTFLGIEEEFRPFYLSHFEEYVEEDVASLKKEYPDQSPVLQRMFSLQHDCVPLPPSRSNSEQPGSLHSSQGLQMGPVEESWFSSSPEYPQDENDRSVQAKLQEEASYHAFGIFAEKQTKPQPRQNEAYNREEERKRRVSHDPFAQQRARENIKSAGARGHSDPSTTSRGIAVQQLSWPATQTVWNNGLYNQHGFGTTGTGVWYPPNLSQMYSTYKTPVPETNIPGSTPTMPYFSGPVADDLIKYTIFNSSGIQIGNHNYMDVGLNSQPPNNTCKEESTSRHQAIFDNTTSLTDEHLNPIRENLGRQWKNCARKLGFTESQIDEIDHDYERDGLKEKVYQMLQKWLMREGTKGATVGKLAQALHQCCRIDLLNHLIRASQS
Description: affinity purification with mass spectrometry; SILAC; FLAG-RIPK1 complexes enriched on ANTI-FLAG M2 gel (3 h, 4 °C) from two clonal Dox-induced MEF lines, DMSO control (light) versus TNF + SM + zVAD 2 h (medium); beads pooled, FLAG peptide elution, LC-MS/MS.

B1: RIOK1 (protein, UniProt Q922Q2 1-567)
chain: MDCSLDRMASVVPGQFDDADSSDSENKELQPIHAEDGGVLLKSLQNAAAEVKGDAETDEEDDYDDDDDWYLDDATGKLTKGCTWNGGSNYQANRQTSNYNSAKMSTPIDKSLRKFENKINLNKLNVTDSVTNKVTVKLRQKEAESYRIKDKADRATVEQVLDPRTRMILFKLLHKDHISEIHGCISTGKEANVYYASTPSGESRAIKIYKTSILMFKDRDKYVTGEFRFRRGYCKGNPRKMVRTWAEKEMRNLCRLKTANIPCPEPIRLRSHVLLMGFIGKDDMPAPLLKNVQLSESKARELYLQVIQYMRKMYQDARLVHADLSEFNMLYHGGDVYIIDVSQSVEHDHPHALEFLRKDCTNVNDFFSKHAVAVMTVRELFDFVTDPSITADNMDAYLEKAMEIASQRTKEEKTSQDHVDEEVFKQAYIPRTLNEVKNYERDVDIMMRLKEEDMALNTQQDNILYQTVMGLKKDLSGVQKVPALLESEVKEETCFGSDDAGGSECSDTVSEEQEDQAGCRNHIADPDIDKKERKKMVKEAQREKRKNKIPKHVKKRKEKTAKAKKGK
On to B1, for which the binding entry was “binds”.
